Test results published in US20130337579.
For part of these data: Negatives hold for the conditions tested. For part of these data: A weaker result is weaker than the reference pair of the same experiment. For part of these data: The exact form of at least one protein or probe is not confirmed.

Chains of the proteins cited; added tags and fusions are not shown. Lines headed by an entry give the natural chain unless they say otherwise; changes in a name come on top. Residues count along the entry.
UniProt P22629: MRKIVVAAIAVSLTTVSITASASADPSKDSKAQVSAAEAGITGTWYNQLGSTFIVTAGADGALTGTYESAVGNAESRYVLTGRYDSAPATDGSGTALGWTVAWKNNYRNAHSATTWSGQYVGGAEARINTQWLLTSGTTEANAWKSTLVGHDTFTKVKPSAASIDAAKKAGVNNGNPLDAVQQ
UniProt P0ACJ8, 2-210: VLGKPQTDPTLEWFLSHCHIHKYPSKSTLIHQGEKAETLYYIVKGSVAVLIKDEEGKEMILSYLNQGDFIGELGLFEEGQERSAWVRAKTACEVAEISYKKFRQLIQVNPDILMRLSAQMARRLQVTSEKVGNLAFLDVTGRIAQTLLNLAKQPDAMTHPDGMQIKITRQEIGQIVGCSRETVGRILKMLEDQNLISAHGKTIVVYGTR

Key:
[1] = molecular target: Streptavidin (UniProt P22629); assay: binding assay; conditions: DRaCALA; no biotin; purified native protein; protein details: Sigma Aldrich; label: 5'-32P; only the site is given
[2] = molecular target: CRP (cited studies) (Escherichia coli) (UniProt P0ACJ8); assay: filter binding; conditions: CITED Gunasekera 1992, label: 32P
[3] = molecular target: CRP (cited studies) (Escherichia coli) (UniProt P0ACJ8); assay: FP; conditions: label: 32P
[4] = molecular target: CRP (catabolite activator protein, cAMP receptor protein) (Escherichia coli) (UniProt P0ACJ8); assay: binding assay; conditions: DRaCALA; very low binding; 100 nM CRP, 4 nM probe, 200 uM cAMP; purified recombinant protein; label: 5'-32P; variant of ICAP oligo duplex (gd126/gd127)

“AATAAATCTCATCTAGATGAGATTTTAG (double strand) [8,10:G-C PCR probe ~600 bp, no biotin (insert unit given)]”: no binding [1].
For “AATAAATGTCATCTAGATGACATTTTAG (double strand) [10:G-C oligo (Gunasekera 1992)]”, the Kd ([2]; 200 uM cAMP, variant of ICAP oligo (Gunasekera 1992)) was greater than 100 nM.
“AATAAATGTGATCTAGATCACATTTTAG (double strand) [ICAP PCR probe ~600 bp, no biotin (ICAP insert given)]”: no binding [1].
In the case of “AATAAATGTGATCTAGATCACATTTTAG (double strand) [ICAP oligo (Gunasekera 1992)]”, the Kd ([2]; no cAMP) is reported as greater than 100 nM and the Kd [3] is reported as 0.7 nM.
“AGGAGGAATAAATCTGATCTAGATCAGATTTTAGAGGAGG (double strand) [8:G-C oligo duplex (gd128/gd129)]”: binds more weakly [4].
